The source of these data is patent US5091518.

The chains behind the UniProt entries cited, without tags or fusion partners.
UniProt P03372, whole entry: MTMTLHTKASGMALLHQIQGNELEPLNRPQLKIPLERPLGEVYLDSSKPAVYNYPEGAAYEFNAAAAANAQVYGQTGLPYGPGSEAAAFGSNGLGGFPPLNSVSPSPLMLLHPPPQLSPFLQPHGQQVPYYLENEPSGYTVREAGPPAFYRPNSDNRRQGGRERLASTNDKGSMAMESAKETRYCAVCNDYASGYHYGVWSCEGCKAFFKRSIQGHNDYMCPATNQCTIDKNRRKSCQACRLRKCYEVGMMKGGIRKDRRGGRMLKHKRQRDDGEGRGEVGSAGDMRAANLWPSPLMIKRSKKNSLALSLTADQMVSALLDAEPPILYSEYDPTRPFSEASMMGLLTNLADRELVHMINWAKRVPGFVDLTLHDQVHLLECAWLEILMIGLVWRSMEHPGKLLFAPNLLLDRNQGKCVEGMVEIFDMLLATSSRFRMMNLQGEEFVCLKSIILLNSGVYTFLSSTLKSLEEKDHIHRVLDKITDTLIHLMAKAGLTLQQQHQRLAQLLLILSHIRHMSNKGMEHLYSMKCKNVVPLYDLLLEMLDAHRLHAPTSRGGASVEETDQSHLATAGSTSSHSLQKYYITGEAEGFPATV

The target in series [1] is T1, Glucocorticoid receptor (GR) (UniProt P04150).
T1 sequence (looked up, limits assumed): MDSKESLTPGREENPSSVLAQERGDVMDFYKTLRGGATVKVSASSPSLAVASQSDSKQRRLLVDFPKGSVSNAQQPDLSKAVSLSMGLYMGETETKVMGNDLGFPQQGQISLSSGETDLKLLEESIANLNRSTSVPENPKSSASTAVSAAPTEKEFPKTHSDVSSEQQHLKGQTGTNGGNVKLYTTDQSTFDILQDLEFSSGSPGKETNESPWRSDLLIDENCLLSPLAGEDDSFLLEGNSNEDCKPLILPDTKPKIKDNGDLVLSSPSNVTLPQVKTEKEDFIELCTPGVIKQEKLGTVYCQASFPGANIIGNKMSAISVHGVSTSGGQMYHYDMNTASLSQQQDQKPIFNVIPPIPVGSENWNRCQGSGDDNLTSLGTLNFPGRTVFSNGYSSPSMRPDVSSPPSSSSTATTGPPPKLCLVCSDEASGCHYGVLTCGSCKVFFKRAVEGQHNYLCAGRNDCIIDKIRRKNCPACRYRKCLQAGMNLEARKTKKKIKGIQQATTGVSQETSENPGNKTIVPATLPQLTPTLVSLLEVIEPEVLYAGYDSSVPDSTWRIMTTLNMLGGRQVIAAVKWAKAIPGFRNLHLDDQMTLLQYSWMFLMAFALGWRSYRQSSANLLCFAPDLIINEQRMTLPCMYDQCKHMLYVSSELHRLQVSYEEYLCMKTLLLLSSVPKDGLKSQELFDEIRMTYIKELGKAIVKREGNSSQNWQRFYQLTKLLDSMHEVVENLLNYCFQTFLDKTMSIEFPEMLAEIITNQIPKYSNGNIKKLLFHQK
Description: pull-down. The note with it: GR extract does not recognize betaRE2; protein in a lysate after overexpression; label: 32P.

The target of series [2] is Estrogen receptor (ER) (UniProt P03372). Description: activity in cells. The note with it: CV-1, with or without ligand; protein in cells; only the site is given.
Series [3] addresses T1, Glucocorticoid receptor (GR). As to the kind of experiment: activity in cells. The note with it: CV-1, with or without ligand; protein in cells; only the site is given.
In series [4] the test system is Thyroid hormone receptor (TR). Description: activity in cells. The note with it: about 10- to 20-fold less activation; protein in cells; only the site is given.
Series [5] concerns the target T2, Vitamin D receptor (VD3R) (UniProt P11473).
T2 sequence (looked up, limits assumed): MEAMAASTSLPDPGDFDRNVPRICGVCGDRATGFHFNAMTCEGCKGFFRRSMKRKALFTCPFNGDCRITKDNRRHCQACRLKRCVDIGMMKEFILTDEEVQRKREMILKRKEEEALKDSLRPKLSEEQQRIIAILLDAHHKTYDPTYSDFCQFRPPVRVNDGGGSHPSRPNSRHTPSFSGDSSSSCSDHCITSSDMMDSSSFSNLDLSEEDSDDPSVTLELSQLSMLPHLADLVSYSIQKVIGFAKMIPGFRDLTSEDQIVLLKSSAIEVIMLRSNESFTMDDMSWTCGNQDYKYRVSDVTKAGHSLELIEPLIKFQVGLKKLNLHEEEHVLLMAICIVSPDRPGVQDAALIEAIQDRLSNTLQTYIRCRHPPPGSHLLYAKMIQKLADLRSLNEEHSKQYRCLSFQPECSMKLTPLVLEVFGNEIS
Description: activity in cells. The note with it: about 10- to 20-fold less activation; protein in cells; only the site is given.

Series [6] concerns the target T3, Retinoic acid receptor alpha (RAR-alpha) (UniProt P10276).
T3 sequence (looked up, limits assumed): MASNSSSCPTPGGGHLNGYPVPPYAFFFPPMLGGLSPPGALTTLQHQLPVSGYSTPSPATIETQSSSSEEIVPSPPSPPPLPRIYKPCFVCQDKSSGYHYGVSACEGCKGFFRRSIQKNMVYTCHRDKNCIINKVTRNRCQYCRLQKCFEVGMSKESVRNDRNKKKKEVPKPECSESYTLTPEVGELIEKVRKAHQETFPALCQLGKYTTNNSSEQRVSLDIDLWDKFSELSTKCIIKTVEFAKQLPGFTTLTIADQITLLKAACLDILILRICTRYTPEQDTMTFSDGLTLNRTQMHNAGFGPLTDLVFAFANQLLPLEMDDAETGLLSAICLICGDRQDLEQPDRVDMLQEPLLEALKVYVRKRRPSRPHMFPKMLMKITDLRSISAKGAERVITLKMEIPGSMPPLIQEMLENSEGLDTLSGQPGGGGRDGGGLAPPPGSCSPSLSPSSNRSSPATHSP
As to the kind of experiment: activity in cells. The note with it: functional only upon cotransfected RAR; protein in cells; protein details: RSV expression vector, CV-1 cells; variant of betaRE1 (RAR-beta RARE); only the site is given.

Series [7] deals with T4, Retinoic acid receptor gamma (RAR-gamma) (UniProt P13631).
T4 sequence (looked up, limits assumed): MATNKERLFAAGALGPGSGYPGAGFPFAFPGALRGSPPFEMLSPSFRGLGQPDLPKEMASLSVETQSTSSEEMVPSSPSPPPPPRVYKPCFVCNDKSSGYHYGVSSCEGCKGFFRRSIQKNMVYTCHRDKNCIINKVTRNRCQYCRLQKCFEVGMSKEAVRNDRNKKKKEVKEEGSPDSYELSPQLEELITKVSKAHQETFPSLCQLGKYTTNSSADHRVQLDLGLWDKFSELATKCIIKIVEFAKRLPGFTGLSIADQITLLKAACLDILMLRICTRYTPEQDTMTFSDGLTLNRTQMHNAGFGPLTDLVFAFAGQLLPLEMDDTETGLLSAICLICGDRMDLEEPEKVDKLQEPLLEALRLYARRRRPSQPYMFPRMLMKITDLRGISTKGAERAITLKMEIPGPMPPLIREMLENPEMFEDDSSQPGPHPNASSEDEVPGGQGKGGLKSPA
As to the kind of experiment: activity in cells. The note with it: functional only upon cotransfected RAR; all three subtypes; protein in cells; variant of betaRE1 (RAR-beta RARE); only the site is given.

For some of these results: Negatives hold for the conditions tested. For some of these results: Protein sequences can lack the tags named with them. For some of these results: The comparison behind a weaker result is the experiment's own reference, which may not be listed here. For some of these results: At least one result comes from cells or an extract, where the contact may be indirect. For some of these results: Construct, isoform or probe ends are uncertain for at least one entry.

Consider “AAGCTTAAGGGTTCACCGAAAGTTCACTCGCATAGCTT (double strand) [betaRE2 oligo (RAR-beta RARE)]”, for which, in series [1], the binding result is “no binding”.

Regarding “AAGCTTAAGGGTTCACCGAAAGTTCACTCGCATATATTAGCTT (double strand) [betaRE1 (RAR-beta RARE)]”, the “activity on this sequence” value was “not active” in series [2], “not active” in series [3], “less active” in series [4] and “less active” in series [5].

Take “GTTCAC (double strand) [betaRE4 / betaRE5 single half site]”: the “activity on this sequence” value in series [6] and in series [7] was “less active” each time.
